From article PMC4605517, “A High Affinity hRpn2-Derived Peptide That Displaces Human Rpn13 from Proteasome in 293T Cells” (PLoS ONE, 2015)
No constants are given. Whether binding was seen depends on the method and setting. In cells and extracts the contact can be indirect. Some entries that bind do so weakly or less than the wild type.

By UniProt entry, the sequences of proteins in these tests, tags left out.
UniProt Q16186: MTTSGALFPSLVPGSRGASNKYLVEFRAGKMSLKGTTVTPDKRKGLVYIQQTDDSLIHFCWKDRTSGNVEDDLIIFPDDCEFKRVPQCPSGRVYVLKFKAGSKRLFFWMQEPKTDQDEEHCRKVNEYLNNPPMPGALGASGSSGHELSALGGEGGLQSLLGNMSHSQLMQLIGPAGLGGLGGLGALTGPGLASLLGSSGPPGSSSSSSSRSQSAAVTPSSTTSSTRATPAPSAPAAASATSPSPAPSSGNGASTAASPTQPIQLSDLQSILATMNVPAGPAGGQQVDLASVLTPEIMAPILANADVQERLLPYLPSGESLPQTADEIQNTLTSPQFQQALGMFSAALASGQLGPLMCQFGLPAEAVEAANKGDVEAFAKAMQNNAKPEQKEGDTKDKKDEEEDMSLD

Biological target: endogenous hRpt3 (human (endogenous in 293T)) (UniProt P43686)
Test: co-IP; 293T lysates (untransfected, or expressing FLAG-hRpn2 (916-953) WT or F948Stop); anti-hRpt3 immunoprecipitation; blots for hRpn13, hRpt3, hRpn2

binding: binds
Substance: endogenous hRpn13 (from UniProt Q16186 1-407)
